Reference: PubChem BioAssay AID1487 (National Center for Advancing Translational Sciences (NCATS), 2009)
“And” between values parts separate entries of the source, which are not always exact repeats. Equal entries are not always repeated. The list shows a part of the results. The main result of the screen is listed elsewhere. These columns were measured beside it and carry no call. Compounds called inactive in the main read-out are mostly missing here. The note in brackets gives the kind of curve behind each potency; many fits are weak.

Assay: qHTS Assay for Modulators of Lamin A Splicing
Details: HeLa LMNA splicing GFP/RFP minigene ratio, 48 h
How it was run: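 S3 HeLa stable clones carrying a lamin A-EGFP splicing minigene plus DsRed2 were seeded at 600 cells/well in Opti-MEM with 2% FBS, pin-dosed and incubated 48 h at 37°C. Acumen cytometry (488 nm) gave the GFP/RFP total-intensity ratio.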

[1] = measured here: RFP viability control channel
[2] = measured here: GFP splicing reporter channel

Structure (SMILES) | AC50 [1] | AC50 [2]
O=C(NCC1(c2ccccc2)CCCC1)c1ccccc1 | 14.1 µM [rising, single point] | –
Cc1cccc(Nc2nc(N)c([N+](=O)[O-])c(N3CCOCC3)n2)c1 | – | 2.24 µM [rising, single point]
Cc1ccc(NC(=O)c2nn(C)c3c2CS(=O)(=O)c2ccccc2-3)c(Cl)c1 | 0.0126 µM [falling, full curve, poor fit] | 0.0316 µM [falling, full curve, poor fit]
O=[N+]([O-])c1cc(S(=O)(=O)N2CCCCCC2)ccc1F | 11.2 µM [rising, partial curve] | –
Cc1ccc(NC(=S)Nc2cccc3cnccc23)c(C)c1 | – | 0.00316 µM [falling, full curve, poor fit]
CCOc1ccc(-c2nnn(CC#N)n2)cc1OC | 25.1 µM [rising, single point] | –
C#CC[N+](C)(C)CCCCCCCCC | 35.5 µM [falling, single point] | 35.5 µM [falling, single point]
COc1cccc(N2CC(O)=C(c3nc4ccccc4c(=O)[nH]3)C2=N)c1 | 2.82 µM [rising, partial curve] | –
CCCCCCCCCc1nc2sc3c(c2c(=O)n1NC(=O)c1ccc([N+](=O)[O-])cc1)CC(C)(C)OC3 | 3.98 µM [rising, full curve] | –
CCCOc1c(OC)cccc1C1CC(=O)Nc2cc3c(cc21)OCO3 (centres undefined) | 17.8 µM [falling, single point] | 15.8 µM [falling, single point]
Oc1c(C(c2ccccc2)N2CCC3(CC2)OCCO3)sc2nc(-c3ccco3)nn12 (centres undefined) | 0.00316 µM [falling, full curve, poor fit] | 0.0126 µM [falling, full curve, poor fit]
COc1cc(CN(C(=O)c2ccco2)c2ccc(C)cc2)ccc1O | 35.5 µM [rising, single point] | –
CN(CC(=O)NC(=O)NCc1ccccc1)Cc1cccc(Cl)c1Cl | 12.6 µM [rising, partial curve] | 11.2 µM [rising, partial curve, poor fit]
CN1CCN(C(=S)Nc2ccc(Cl)cc2)CC1 | 3.98 µM [rising, full curve, poor fit] | –
CCCN(CC(=O)Nc1ccc(C)cc1Br)CC(=O)Nc1ccc(F)c(F)c1F | 17.8 µM [rising, partial curve, poor fit] | –
CC1(c2ccc(Cl)cc2Cl)OCC(Cn2ccnc2)O1 (centres undefined) | 22.4 µM [rising, single point] | –
COc1nc(Nc2cccc(C(F)(F)F)c2)nc(OC)n1 | 20 µM [rising, single point] | 22.4 µM [rising, single point]
Cc1ccccc1NC(=S)c1nc2ccccc2[nH]1 | 17.8 µM [rising, single point] | –
COc1ccc(OC)c(S(=O)(=O)Nc2cc3c(cc2C)n(C)c(=O)c(=O)n3C)c1 | – | 0.355 µM [rising, partial curve]

Structure (SMILES) | AC50 [1] | AC50 [2]
Cc1ccc(NC(=O)CN(C)S(=O)(=O)c2ccc(Br)s2)cc1F | 25.1 µM [rising, single point] | –
C/C(=N\NC(=O)Cn1c(C)nc2ccccc21)c1cccs1 | 14.1 µM [rising, partial curve] | 5.62 µM [rising, partial curve, poor fit]
O=S(=O)(c1ccc(Br)cc1)N1CCN=C1SCc1cccnc1 | – | 0.282 µM [rising, partial curve, poor fit]
CCOC(=O)c1sc(NC(=O)CSc2n[nH]c(-c3ccncc3)n2)c(C#N)c1C | 3.55 µM [rising, full curve] | –
CC(C)CN=C(NS(=O)(=O)c1ccccc1)C(Cl)(Cl)Cl | 2 µM [rising, single point] | 35.5 µM [falling, single point]
COc1ccc(P(=O)(COc2ccc([N+](=O)[O-])cc2)c2ccc(OC)cc2)cc1 | 0.178 µM [rising, full curve, poor fit] | 0.316 µM [rising, partial curve]
Oc1ccc(N=Cc2ccc(-c3cccs3)s2)cc1 | – | 35.5 µM [rising, single point]
Cc1ccc(NC(=O)NCc2ccc3c(c2)CCN3C(=O)c2ccccc2)c(Cl)c1 | – | 11.2 µM [falling, partial curve, poor fit]
COc1ccc(-n2cc(CNCCc3cscn3)c(-c3ccccc3Cl)n2)cc1 | – | 11.2 µM [falling, partial curve, poor fit]
CN(C)CCCn1c(SCCN2C(=O)c3ccccc3C2=O)nc2ccccc2c1=O | 35.5 µM [falling, single point] | 35.5 µM [falling, single point]
CCC(=O)c1ccc(N2CCN(C(=O)c3cc([N+](=O)[O-])ccc3F)CC2)c(F)c1 | 0.0158 µM [falling, full curve, poor fit] | –
Cc1ccccc1NS(=O)(=O)c1cc(C(=O)N2CCc3ccccc3C2)ccc1C | 15.8 µM [rising, single point] | 11.2 µM [rising, single point]
Cc1ccc(Nc2ncc3c(n2)CC(c2ccco2)CC3=O)c(C)c1 (centres undefined) | 0.794 µM [falling, full curve, poor fit] | –
CCC1C/C(=C/c2ccco2)C(=O)/C(=C/c2ccco2)C1 (centres undefined) | 15.8 µM [rising, partial curve] | –
CN(Cc1ccccc1)S(=O)(=O)c1ccc(NS(=O)(=O)Cc2ccccc2)cc1 | 35.5 µM [rising, single point] | –
O=C(CSc1nnc(-c2ccc(O)cc2)n1Cc1ccco1)N1CCc2ccccc2C1 | – | 35.5 µM [rising, single point]
CC(=O)C1=C(c2ccc(Br)cc2)C(=O)c2ccccc2C1=O | 31.6 µM [falling, single point] | 35.5 µM [falling, single point]
N#CC1=C(N)SC(N)=C(C#N)C1CCC1CCCCC1 | 2.82 µM [rising, single point] | 3.16 µM [rising, partial curve]
C=C(C)[C@H]1CC[C@]2(CO)CC[C@]3(C)[C@@H](CC[C@H]4[C@@]5(C)CC[C@@H](O)C(C)(C)[C@@H]5CC[C@@]43C)[C@H]12 | 14.1 µM [falling, single point] | 1.26 µM [rising, single point]

Full records, looked up by structure. Values in the order: AC50 [1]	AC50 [2]
`Cc1ccc(NC(=O)NCc2ccc3c(c2)CCN3C(=O)c2ccccc2)c(Cl)c1` as listed: –	11.2 µM [falling, partial curve, poor fit]
`COc1cccc(N2CC(O)=C(c3nc4ccccc4c(=O)[nH]3)C2=N)c1` as listed: 2.82 µM [rising, partial curve]	–

Later entries.

Structure (SMILES) | AC50 [1] | AC50 [2]
CC(=O)Nc1ccc(C(=S)NCc2ccco2)cc1 | 15.8 µM [rising, single point] | –
CCCCOc1ccc(CNC(=O)CN2CCSc3ccccc32)cc1 | 28.2 µM [rising, single point] | –
c1cncc(-c2noc(-c3ccco3)n2)c1 | – | 15.8 µM [rising, partial curve, poor fit]
CCCCCCSC1=C(C#N)C(=O)NC2(CCCCC2)S1 | – | 0.00891 µM [falling, full curve, poor fit]
NC/C=C\C(=O)O | 6.31 µM [falling, single point] | –
Oc1cccc(/C=N/Nc2cc(N3CCOCC3)nc(N3CCOCC3)n2)c1 | 12.6 µM [rising, partial curve] | –
CCOC(=O)C1CCC(CN(Cc2ccccc2)S(=O)(=O)c2ccc(Cl)cc2)CC1 (centres undefined) | 1.41 µM [falling, partial curve] | –
CC1(C)CC(=O)C=C(NNC(=O)c2ccccc2)C1 | 0.158 µM [falling, full curve, poor fit] | –
CN(c1ccc(C(=O)NCCC2=CCCCC2)cc1)S(C)(=O)=O | 12.6 µM [rising, partial curve, poor fit] | 6.31 µM [rising, partial curve]
CC1=C(C(=O)OCc2ccccc2)C(c2ccc(Cl)cc2Cl)NC(=O)N1CCCCCC(=O)O (centres undefined) | 28.2 µM [rising, single point] | 35.5 µM [rising, single point]
COC/C=C/C1=CC2=CC(=O)C(C)(OC(=O)c3cnc4ccccc4n3)C(=O)C2=CN1CCOC (centres undefined) | 3.55 µM [rising, single point] | –
COC(=O)c1c(C(=O)OC)c(-c2ccc(C)cc2)n2c1CCC2 | 35.5 µM [rising, single point] | –
O=C(NCC(c1ccco1)N1CCN(c2ccccc2)CC1)OCc1ccccc1 (centres undefined) | 12.6 µM [rising, partial curve] | –
O=C(CSc1ncccn1)NC(=O)Nc1ccc2c(c1)OCCO2 | 0.00501 µM [falling, full curve, poor fit] | –
NC(N)=NC(=O)Cc1c(Cl)cccc1Cl | 10 µM [rising, single point] and 355 nM [rising, partial curve, poor fit] | 447 nM [falling, partial curve] and 35.5 µM [falling, single point]
Cc1ccc(CCc2nnc(SCC(=O)Nc3cc(Cl)ccc3Cl)n2-c2ccccc2)o1 | 7.94 µM [rising, partial curve, poor fit] | –
COc1ccc(N2CCN(C(CNC(=O)OCc3ccccc3)c3ccco3)CC2)cc1 (centres undefined) | 15.8 µM [rising, partial curve] | 11.2 µM [rising, partial curve, poor fit]
c1ccc(C2=Nc3cccc4cccc(c34)N2)cc1 | 3.55 µM [rising, partial curve] | –
